# From the supplement of paper PMC8728848
# Some of the results follow.
# How the values were obtained:
# Assay in all cases: glycan array binding signal (z-score within array); higher = stronger binding
# Settings in all cases: glycan notation: IUPAC condensed, linker removed
# [1] = molecular target: Neu5Ac(a2-3)Gal(b1-4)GlcNAc(b1-3)[Neu5Ac(a2-3)Gal(b1-4)GlcNAc(b1-6)]GalNAc
# Outline: (§1)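 Columns mapping to the same glycan were averaged after glycan names were converted to IUPAC-condensed notation. The data come from 3228 arrays in the Consortium for Functional Glycomics database, limited to those with an available protein sequence. Binding is reported as a within-array Z-score averaged across arrays of one protein sequence and across linkers.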
# [2] = molecular target: Neu5Ac(a2-3)Gal(b1-4)GlcNAc(b1-6)GalNAc
# Outline: as §1
# [3] = molecular target: Neu5Ac(a2-3)Gal(b1-4)GlcNAc(b1-6)[Gal(b1-3)]GalNAc
# Outline: as §1
# [4] = molecular target: Neu5Ac(a2-3)Gal(b1-4)GlcNAc(b1-6)[Neu5Ac(a2-3)Gal(b1-3)]GalNAc
# Outline: as §1
# [5] = molecular target: Neu5Ac(a2-3)Gal(b1-4)GlcNAc6S
# Outline: as §1
# [6] = molecular target: Neu5Ac(a2-3)Gal(b1-4)[Fuc(a1-3)]GlcNAc
# Outline: as §1
# [7] = molecular target: Neu5Ac(a2-3)Gal(b1-4)[Fuc(a1-3)]GlcNAc(b1-2)Man
# Outline: as §1
# [8] = molecular target: Neu5Ac(a2-3)Gal(b1-4)[Fuc(a1-3)]GlcNAc(b1-3)Gal
# Outline: as §1
# [9] = molecular target: Neu5Ac(a2-3)Gal(b1-4)[Fuc(a1-3)]GlcNAc(b1-3)Gal(b1-4)GlcNAc
# Outline: as §1
# [10] = molecular target: Neu5Ac(a2-3)Gal(b1-4)[Fuc(a1-3)]GlcNAc(b1-3)Gal(b1-4)[Fuc(a1-3)]GlcNAc(b1-3)Gal(b1-4)[Fuc(a1-3)]GlcNAc
# Outline: as §1
# [11] = molecular target: Neu5Ac(a2-3)Gal(b1-4)[Fuc(a1-3)]GlcNAc(b1-3)GalNAc
# Outline: as §1
# [12] = molecular target: Neu5Ac(a2-3)Gal(b1-4)[Fuc(a1-3)]GlcNAc(b1-6)[Gal(b1-3)]GalNAc
# Outline: as §1
# [13] = molecular target: Neu5Ac(a2-3)Gal(b1-4)[Fuc(a1-3)]GlcNAc(b1-6)[Neu5Ac(a2-3)Gal(b1-3)]GalNAc
# Outline: as §1
# [14] = molecular target: Neu5Ac(a2-3)Gal(b1-4)[Fuc(a1-3)]GlcNAc6S
# Outline: as §1
# [15] = molecular target: Neu5Ac(a2-3)Gal6S(b1-4)GlcNAc
# Outline: as §1
# [16] = molecular target: Neu5Ac(a2-3)Gal6S(b1-4)[Fuc(a1-3)]GlcNAc
# Outline: as §1
# Neu5Ac(a2-3)GalNAc = molecular target: Neu5Ac(a2-3)GalNAc
# Outline: as §1
# [17] = molecular target: Neu5Ac(a2-3)GalNAc(b1-4)GlcNAc
# Outline: as §1
# [18] = molecular target: Neu5Ac(a2-3)[GalNAc(b1-4)]Gal(b1-4)Glc
# Outline: as §1
# [19] = molecular target: Neu5Ac(a2-3)[GalNAc(b1-4)]Gal(b1-4)GlcNAc
# Outline: as §1
# [20] = molecular target: Neu5Ac(a2-3)[GalNAc(b1-4)]Gal(b1-4)GlcNAc(b1-3)GalNAc
# Outline: as §1
# [21] = molecular target: Neu5Ac(a2-3)[Neu5Ac(a2-6)]GalNAc
# Outline: as §1
# Neu5Ac(a2-6)Gal = molecular target: Neu5Ac(a2-6)Gal
# Outline: as §1
# [22] = molecular target: Neu5Ac(a2-6)Gal(b1-3)GlcNAc(b1-3)[Gal(b1-4)GlcNAc(b1-6)]Gal(b1-4)Glc
# Outline: as §1
# Neu5Ac(a2-6)Gal(b1-4)Glc = molecular target: Neu5Ac(a2-6)Gal(b1-4)Glc
# Outline: as §1
# [23] = molecular target: Neu5Ac(a2-6)Gal(b1-4)GlcNAc
# Outline: as §1
# [24] = molecular target: Neu5Ac(a2-6)Gal(b1-4)GlcNAc(b1-2)Man
# Outline: as §1
# [25] = molecular target: Neu5Ac(a2-6)Gal(b1-4)GlcNAc(b1-2)Man(a1-3)Man(b1-4)GlcNAc(b1-4)GlcNAc
# Outline: as §1
# [26] = molecular target: Neu5Ac(a2-6)Gal(b1-4)GlcNAc(b1-2)Man(a1-3)[Gal(b1-4)GlcNAc(b1-2)Man(a1-6)]Man(b1-4)GlcNAc(b1-4)GlcNAc
# Outline: as §1
# [27] = molecular target: Neu5Ac(a2-6)Gal(b1-4)GlcNAc(b1-2)Man(a1-3)[GlcNAc(b1-2)Man(a1-6)]Man(b1-4)GlcNAc(b1-4)GlcNAc
# Outline: as §1
# [28] = molecular target: Neu5Ac(a2-6)Gal(b1-4)GlcNAc(b1-2)Man(a1-3)[GlcNAc(b1-4)][Neu5Ac(a2-6)Gal(b1-4)GlcNAc(b1-2)Man(a1-6)]Man(b1-4)GlcNAc(b1-4)GlcNAc
# Outline: as §1
# [29] = molecular target: Neu5Ac(a2-6)Gal(b1-4)GlcNAc(b1-2)Man(a1-3)[Man(a1-6)]Man(b1-4)GlcNAc(b1-4)GlcNAc
# Outline: as §1
# [30] = molecular target: Neu5Ac(a2-6)Gal(b1-4)GlcNAc(b1-2)Man(a1-3)[Neu5Ac(a2-3)Gal(b1-4)GlcNAc(b1-2)Man(a1-6)]Man(b1-4)GlcNAc(b1-4)GlcNAc
# Outline: as §1
# [31] = molecular target: Neu5Ac(a2-6)Gal(b1-4)GlcNAc(b1-2)Man(a1-3)[Neu5Ac(a2-6)Gal(b1-4)GlcNAc(b1-2)Man(a1-6)]Man(b1-4)GlcNAc(b1-4)GlcNAc
# Outline: as §1
# [32] = molecular target: Neu5Ac(a2-6)Gal(b1-4)GlcNAc(b1-2)Man(a1-3)[Neu5Ac(a2-6)Gal(b1-4)GlcNAc(b1-2)Man(a1-6)]Man(b1-4)GlcNAc(b1-4)[Fuc(a1-6)]GlcNAc
# Outline: as §1
# [33] = molecular target: Neu5Ac(a2-6)Gal(b1-4)GlcNAc(b1-2)Man(a1-6)Man(b1-4)GlcNAc(b1-4)GlcNAc
# Outline: as §1
# [34] = molecular target: Neu5Ac(a2-6)Gal(b1-4)GlcNAc(b1-2)Man(a1-6)[Gal(b1-4)GlcNAc(b1-2)Man(a1-3)]Man(b1-4)GlcNAc(b1-4)GlcNAc
# Outline: as §1
# [35] = molecular target: Neu5Ac(a2-6)Gal(b1-4)GlcNAc(b1-2)Man(a1-6)[GlcNAc(b1-2)Man(a1-3)]Man(b1-4)GlcNAc(b1-4)GlcNAc
# Outline: as §1
# [36] = molecular target: Neu5Ac(a2-6)Gal(b1-4)GlcNAc(b1-2)Man(a1-6)[Man(a1-3)]Man(b1-4)GlcNAc(b1-4)GlcNAc
# Outline: as §1
# [37] = molecular target: Neu5Ac(a2-6)Gal(b1-4)GlcNAc(b1-2)[Neu5Ac(a2-6)Gal(b1-4)GlcNAc(b1-4)]Man(a1-3)[GlcNAc(b1-4)][Neu5Ac(a2-6)Gal(b1-4)GlcNAc(b1-2)[Neu5Ac(a2-6)Gal(b1-4)GlcNAc(b1-6)]Man(a1-6)]Man(b1-4)GlcNAc(b1-4)GlcNAc
# Outline: as §1
# [38] = molecular target: Neu5Ac(a2-6)Gal(b1-4)GlcNAc(b1-2)[Neu5Ac(a2-6)Gal(b1-4)GlcNAc(b1-4)]Man(a1-3)[GlcNAc(b1-4)][Neu5Ac(a2-6)Gal(b1-4)GlcNAc(b1-4)Man(a1-6)]Man(b1-4)GlcNAc(b1-4)GlcNAc
# Outline: as §1
# [39] = molecular target: Neu5Ac(a2-6)Gal(b1-4)GlcNAc(b1-2)[Neu5Ac(a2-6)Gal(b1-4)GlcNAc(b1-6)]Man(a1-6)[Neu5Ac(a2-6)Gal(b1-4)GlcNAc(b1-2)Man(a1-3)][GlcNAc(b1-4)]Man(b1-4)GlcNAc(b1-4)GlcNAc
# Outline: as §1
# [40] = molecular target: Neu5Ac(a2-6)Gal(b1-4)GlcNAc(b1-3)Gal(b1-3)GlcNAc
# Outline: as §1
# [41] = molecular target: Neu5Ac(a2-6)Gal(b1-4)GlcNAc(b1-3)Gal(b1-4)GlcNAc
# Outline: as §1
# [42] = molecular target: Neu5Ac(a2-6)Gal(b1-4)GlcNAc(b1-3)Gal(b1-4)GlcNAc(b1-2)Man(a1-3)[Neu5Ac(a2-6)Gal(b1-4)GlcNAc(b1-3)Gal(b1-4)GlcNAc(b1-2)Man(a1-6)]GalNAc
# Outline: as §1
binder,measurement,setting,value
"DCIR1 (Mus musculus), Q9QZ15 (protein) MASEITYAEVKFKNESNSLHTYSESPAAPREKPIRDLRKPGSPSLLLTSLMLLLLLLAITFLVAFIIYFQKYSQLLEEKKAAKNIMHNELNCTKSVSPMEDKVWSCCPKDWRLFGSHCYLVPTVSSSASWNKSEENCSRMGAHLVVIQSQEEQDFITGILDTHAAYFIGLWDTGHRQWQWVDQTPYEESITFWHNGEPSSGNEKCATIIYRWKTGWGWNDISCSLKQKSVCQMKKINL",glycan array binding signal (z-score),[1],-0.075
same,glycan array binding signal (z-score),[2],-0.193
same,glycan array binding signal (z-score),[3],-0.308
same,glycan array binding signal (z-score),[4],-0.97
same,glycan array binding signal (z-score),[5],0.145
same,glycan array binding signal (z-score),[6],-0.67
same,glycan array binding signal (z-score),[7],-0.523
same,glycan array binding signal (z-score),[8],-1.11
same,glycan array binding signal (z-score),[9],-0.732
same,glycan array binding signal (z-score),[10],-0.703
same,glycan array binding signal (z-score),[11],1.28
same,glycan array binding signal (z-score),[12],0.596
same,glycan array binding signal (z-score),[13],0.06
same,glycan array binding signal (z-score),[14],-0.532
same,glycan array binding signal (z-score),[15],-0.885
same,glycan array binding signal (z-score),[16],-1
same,glycan array binding signal (z-score),Neu5Ac(a2-3)GalNAc,-0.723
same,glycan array binding signal (z-score),[17],0.325
same,glycan array binding signal (z-score),[18],-0.774
same,glycan array binding signal (z-score),[19],-0.784
same,glycan array binding signal (z-score),[20],-0.678
same,glycan array binding signal (z-score),[21],-0.067
same,glycan array binding signal (z-score),Neu5Ac(a2-6)Gal,0.531
same,glycan array binding signal (z-score),[22],0.196
same,glycan array binding signal (z-score),Neu5Ac(a2-6)Gal(b1-4)Glc,-0.693
same,glycan array binding signal (z-score),[23],-0.229
same,glycan array binding signal (z-score),[24],0.311
same,glycan array binding signal (z-score),[25],0.019
same,glycan array binding signal (z-score),[26],0.394
same,glycan array binding signal (z-score),[27],-0.842
same,glycan array binding signal (z-score),[28],-0.941
same,glycan array binding signal (z-score),[29],0.041
same,glycan array binding signal (z-score),[30],-0.847
same,glycan array binding signal (z-score),[31],-0.079
same,glycan array binding signal (z-score),[32],0.371
same,glycan array binding signal (z-score),[33],1.82
same,glycan array binding signal (z-score),[34],-0.16
same,glycan array binding signal (z-score),[35],2.04
same,glycan array binding signal (z-score),[36],-1.19
same,glycan array binding signal (z-score),[37],-0.823
same,glycan array binding signal (z-score),[38],-1.19
same,glycan array binding signal (z-score),[39],-1.08
same,glycan array binding signal (z-score),[40],-1.01
same,glycan array binding signal (z-score),[41],-0.209
same,glycan array binding signal (z-score),[42],-0.099

# Nothing new here: an excerpt of the list.
binder,measurement,setting,value
"DCIR1 (Mus musculus), Q9QZ15 (protein) MASEITYAEVKFKNESNSLHTYSESPAAPREKPIRDLRKPGSPSLLLTSLMLLLLLLAITFLVAFIIYFQKYSQLLEEKKAAKNIMHNELNCTKSVSPMEDKVWSCCPKDWRLFGSHCYLVPTVSSSASWNKSEENCSRMGAHLVVIQSQEEQDFITGILDTHAAYFIGLWDTGHRQWQWVDQTPYEESITFWHNGEPSSGNEKCATIIYRWKTGWGWNDISCSLKQKSVCQMKKINL",glycan array binding signal (z-score),[24],0.311
same,glycan array binding signal (z-score),[25],0.019
